Article PMC12067444, “Synthesis and Pharmacological Characterization of Novel Peripheral Cannabinoid-1 Receptor Blockers Based on a Tricyclic Scaffold” (Journal of Medicinal Chemistry, 2025)

System: HepG2 cells
Test: Cell viability assay (CellTiter Glo)
Type: cell-based
Settings: 72 h
Procedure: Cell viability assay. To assess the cell viability, which indicates the toxicity of the novel compounds, a total of 3,000 HepG2 cells were seeded into a 384-well plate. The compounds were then dispensed onto the cell plate using a Tecan D300e digital dispenser. Following compound addition, 35 μL CellTiter Glo reagent was added to all wells of the assay plate, and the plate was mixed for 30 sec on an or bital shaker to lyse cells. Subsequently, the plate was incubated at room temperature for 10 minutes. The luminescence signal was measured using a 384-well plate reader (EnVision). The obtained data were analyzed using XL-fit software (ID Business Solutions Ltd., Software version: XL fit 5. 5. 0. 5). The percentage of inhibition was calculated using the […]
Inhibition (%) = (1-Sample / ZPE) ×100
Sample represents the test compound's luminesc e nce signal, and ZPE represents the luminescence signal f r om the zer o-percent enzyme control.

## CN[C@@H]1C[C@H]2O[C@@](C)([C@@H]1OC)n1c3ccccc3c3c4c(c5c6ccccc6n2c5c31)C(=O)NC4 [Staurosporine, reference compound]
  Bottom (%) of cell viability inhibition curve: 1.13%
  Top (%) of cell viability inhibition curve: 71.33%
Homo sapiens, read-out: cell viability Absolute IC50
  IC50: 80 nM
